{"source": "the supplement of paper PMC5407854", "about": "“Inhibitor of ppGalNAc-T3-mediated O-glycosylation blocks cancer cell invasiveness and lowers FGF23 levels” (eLife, 2017)", "note": "The list shows a part of the results. Small differences around the control level are noise."}
{"test_system": "ppGalNAc-T2 sensor", "assay": "T2 sensor activation Q score (MG/GFP ratio z-score vs DMSO controls) (SD units); higher = more sensor activation (inhibition of ppGalNAc-T2 glycosylation)", "settings": "HEK293 sensor cells; 10 µM; 6 h", "description": "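Cells were treated with compound at 10 uM for 6 h, then MG/GFP ratio was read by flow cytometry (10,000 cells per well, duplicate wells). Q = (R - R_neg)/SD_neg relative to DMSO vehicle controls; the signal rises when the glycosyltransferase is inhibited.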"}
{"smiles": "Cc1ccccc1N1CCN(Cc2ccc(Br)s2)CC1", "T2 sensor activation Q score": 0.335}
{"smiles": "COc1cc(CN2CCCN(C)CC2)c([N+](=O)[O-])cc1OC", "T2 sensor activation Q score": -0.005}
{"smiles": "Nc1nc(N)nc(-c2ccccc2)n1", "T2 sensor activation Q score": -0.425}
{"smiles": "CCOc1ccccc1CN1CCC(O)CC1", "T2 sensor activation Q score": 0.065}
{"smiles": "Cc1ccc(C(=O)Nc2ccc(C(=O)O)cc2)cc1C", "T2 sensor activation Q score": -0.01}
{"smiles": "CC(=O)C1=C(O)C(=O)N(c2cccc(C)c2)C1c1ccccc1", "note": "(stereo not given)", "T2 sensor activation Q score": 0.01}
{"smiles": "Cc1ccc(S(=O)(=O)CC(N)=O)cc1", "T2 sensor activation Q score": -1.64}
{"smiles": "O=C(CCc1ccccc1)Nc1ccc(F)cc1F", "T2 sensor activation Q score": -0.77}
{"smiles": "COc1cc2c(cc1OC)CN(Cc1ccccc1F)CC2", "T2 sensor activation Q score": -0.015}
{"smiles": "CC(C)(C)S(=O)(=O)c1ccsc1S(C)(=O)=O", "T2 sensor activation Q score": 1.53}
{"smiles": "CC(=O)N(C1=C(N2CCCC2)C(=O)c2ccccc2C1=O)c1cccc(Cl)c1", "T2 sensor activation Q score": -0.29}
{"smiles": "CN1CCN(Cc2cccc(OCc3ccccc3)c2)CC1", "T2 sensor activation Q score": -0.61}
{"smiles": "Nc1ccc(C(=O)c2ccccc2)cc1[N+](=O)[O-]", "T2 sensor activation Q score": -0.285}
{"smiles": "COc1ccc2c(Cl)c(C(=O)N3CCCCC3)sc2c1", "T2 sensor activation Q score": -0.155}
{"smiles": "O=C(Nc1ccc2c(c1)S(=O)(=O)c1cc(NC(=O)c3cccs3)ccc1-2)c1cccs1", "T2 sensor activation Q score": 1.18}
{"smiles": "CCOc1ccc(N2C(=O)CC(N3CCCC3)C2=O)cc1", "note": "(stereo not given)", "T2 sensor activation Q score": 0.505}
{"smiles": "CCN(CCN(C)C)Cc1ccc([N+](=O)[O-])cc1", "T2 sensor activation Q score": 0.485}
{"smiles": "CC(C)c1ccc(NC(=O)c2ccco2)cc1", "T2 sensor activation Q score": -1.11}
{"smiles": "O=C(NN1C(=O)c2ccccc2C1=O)c1cccc(Br)c1", "T2 sensor activation Q score": 0.31}
{"smiles": "CN1CCN(C/C=C/c2ccc(N(C)C)cc2)CC1", "T2 sensor activation Q score": 0.72}
{"smiles": "CCOc1ccc2nc(NC(=O)c3ccc([N+](=O)[O-])c(C)c3)sc2c1", "T2 sensor activation Q score": -1.01}
{"smiles": "C=CCOc1cc(C)nc(-c2ccccc2O)n1", "T2 sensor activation Q score": 1.06}
{"smiles": "Fc1cccc(CN2CCN(c3ccccn3)CC2)c1", "T2 sensor activation Q score": 0.155}
{"smiles": "Cc1cccc(OCCNCCO)c1C", "T2 sensor activation Q score": 0.02}
{"smiles": "COc1cc(OC)cc(C(=O)NC2C3CC4CC(C3)CC2C4)c1", "note": "(stereo not given)", "T2 sensor activation Q score": 0.545}
{"smiles": "O=[N+]([O-])c1ccc(C(O)CC(O)C(Cl)(Cl)Cl)cc1", "note": "(stereo not given)", "T2 sensor activation Q score": 0.865}
{"smiles": "COc1ccc(OCc2nc3ccccc3[nH]2)cc1", "T2 sensor activation Q score": -1.83}
{"smiles": "CCN1CCN(C2CC(=O)N(c3ccc(F)cc3)C2=O)CC1", "note": "(stereo not given)", "T2 sensor activation Q score": -1.09}
{"smiles": "CCCCOc1ccc(C2(C(=O)O)CCCC2)cc1", "T2 sensor activation Q score": 0.15}
{"smiles": "CCN(CCN(C)C)Cc1cccc(F)c1", "T2 sensor activation Q score": 1.04}
{"smiles": "Nc1nnc(CCc2ccccc2)s1", "T2 sensor activation Q score": -0.13}
{"smiles": "O=C(O)c1ccccc1C(=O)c1ccc(F)c(F)c1", "T2 sensor activation Q score": 0.82}
{"smiles": "CC1(c2ccccc2)CC(C)(C)N2C(=O)Cc3cccc1c32", "note": "(stereo not given)", "T2 sensor activation Q score": 0.015}
{"smiles": "CCC(=O)N1CCN(c2ccc([N+](=O)[O-])cc2)CC1", "T2 sensor activation Q score": -0.53}
{"smiles": "c1ccc(-n2cccc2CNC2CCCCC2)cc1", "T2 sensor activation Q score": -0.415}
{"smiles": "NC(=O)CSc1nc2ccccc2[nH]1", "T2 sensor activation Q score": -1.49}
{"smiles": "O=C(c1ccccc1Br)N1CCCCC1CO", "note": "(stereo not given)", "T2 sensor activation Q score": 0.94}
{"smiles": "COc1ccc(C(=O)c2ccc(Br)cc2)cc1", "T2 sensor activation Q score": -0.95}
{"smiles": "Cc1c(Cc2ccccc2)sc(N)c1C(N)=O", "T2 sensor activation Q score": 0.695}
{"smiles": "CC(C)N(C(=O)Nc1cccc(Cl)c1)C(C)C", "T2 sensor activation Q score": -0.3}
